# Out of some 400,000 compounds screened, about 5,500 (1.4%) were called active. The shares of active, inactive and inconclusive entries below differ from those in the screen. The call rests on the fitted dose curve; in most records, active means well fitted cell-killing curve with a large enough effect; inconclusive means small, poorly fitted or top-dose-only effect, or effect the other way; inactive means flat fitted curve, though single readings scatter. Where the call is inconclusive, the potency comes from a doubtful curve fit.
# Experiment: qHTS assay for MDR1-selective chemotherapeutics: Primary screen using the parental adenocarcinoma cell KB-3-1; further: nearly all actives have a fitted effect of over 60% in size
# Conditions: KB-3-1 viability, CellTiter-Glo ATP luminescence, 72 h; activity change, negative = cytotoxic: at 46.1 µM (top of the series)
# Outline: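 Viability of parental KB-3-1 cells, measured by CellTiter-Glo luminescence, followed a 72 h incubation at 37 °C with pinned compounds in phenol-red-free DMEM containing 10% FBS.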
# On the % scale 0 is the no-effect control and ±100 the full control effect; potency means the concentration at half of the fitted maximal effect.
SMILES,"activity change, negative = cytotoxic",Potency
COc1ccccc1NC(=O)CN1CCN(C(=O)C2CCCO2)CC1 (stereo not drawn),inactive: 23.4%,–
COc1ccc(C(c2c(C)n(C)n(-c3ccccc3)c2=O)c2c(C)n(C)n(-c3ccccc3)c2=O)cc1O,–,"inconclusive: 18.4 µM [cytotoxic, single point]"
O=C(Nc1ccc2c(c1)OCO2)C1CCCN(c2nc3ccccc3s2)C1 (stereo not drawn),–,"inconclusive: 20.6 µM [cytotoxic, single point]"
CCSc1ccc([C@@H]2[C@@H]3C(=O)N(CC)C(=O)[C@@H]3[C@]3(C(=O)OC)CCCCN23)cc1OC,inactive: -9.99%,–
COc1ccccc1/C=C/c1nc(S(=O)(=O)c2ccccc2)c(N2CCC(C(N)=O)CC2)o1,inactive: 7.14%,–
CSC1=NC(C(Cl)(Cl)Cl)N=C(c2ccccc2)N1 (stereo not drawn),–,active: 3.26 µM
COc1ccc([C@H]2CC(=O)C=C(c3cc(C=O)ccc3OC)C2)cc1OC,–,"inconclusive: 23.1 µM [cytotoxic, single point]"
CCCCN(C=O)c1c(CC)nc2ccc(C(=O)NCCCn3ccnc3)cn12,inactive: 0%,–
C/C(=N\NC(=O)c1ccc(N2CCCC2=O)cc1)c1ccc(O)cc1O,–,"inconclusive: 6.51 µM [cytotoxic, partial curve]"
CCc1nc(CNC(=O)c2cc(OC)c(OC)c(OC)c2)no1,inactive: 9.48%,–
CN(CC(=O)Nc1ccc2c(c1)OCO2)CC(=O)Nc1ccc(F)c(F)c1F,–,"inconclusive: 11.6 µM [rising, partial curve, poor fit]"
COc1ccc(OC)c(Cc2cnc3nc(N)nc(N)c3c2C)c1,–,"inconclusive: 0.651 µM [cytotoxic, full curve]"
CC1CCN(CC(=O)N2CCCc3c2c(=O)oc2ccc(OCc4ccccc4)cc32)CC1,–,"inconclusive: 29.1 µM [cytotoxic, single point]"
CCCOc1ccc(Br)cc1CSC(=N)N,–,active: 8.2 µM
CC1(C(=O)Nc2cccc(C(F)(F)F)c2)Cc2ccccc2C(=O)O1 (stereo not drawn),inactive: -5.44%,–
C=C(C)c1nc(N)nc(N)n1,–,"inconclusive: 29.1 µM [cytotoxic, single point]"
CC(C)(C)n1ncc2c(=O)n(Cc3cccc(Cn4cnc5c(cnn5C(C)(C)C)c4=O)c3F)cnc21,–,"inconclusive: 25.9 µM [cytotoxic, single point]"
CC1c2cc3c(cc2CCN1CC(=O)Nc1ccccc1)OCCCO3 (stereo not drawn),–,"inconclusive: 29.1 µM [cytotoxic, single point]"
COc1ccccc1NC(=O)c1nc(S(=O)(=O)Cc2ccccc2)ncc1Cl,–,active: 7.31 µM
O=C(CSc1nc(-c2ccc(Cl)cc2)cs1)Nc1cccc([N+](=O)[O-])c1,–,"inconclusive: 23.1 µM [cytotoxic, single point]"
COc1ccc(S(=O)(=O)n2nc(-c3ccc(Cl)cc3)cc2N)cc1OC,–,"inconclusive: 29.1 µM [cytotoxic, single point]"
COc1ccc(-c2cc(-c3nc4ccccn4c3NCc3ccccc3)ccc2OC)cc1,inactive: -14.5%,–
Cc1cc(C)c2nc3nc(C)cc(C)c3c(N)c2c1,–,"inconclusive: 29.1 µM [cytotoxic, single point]"

SMILES,"activity change, negative = cytotoxic",Potency
N=c1n(CCN2CCCCC2)c2ccccc2n1CC(O)c1ccc(Cl)c(Cl)c1 (stereo not drawn),–,"inconclusive: 32.6 µM [cytotoxic, single point]"
O=C(CSc1nnc(-c2ccccc2)c(-c2ccccc2)n1)N1CCc2ccccc21,–,"inconclusive: 14.6 µM [cytotoxic, partial curve, poor fit]"
COc1ccc(CCn2c(NN=C3CCCCC3)nc3c2c(=O)[nH]c(=O)n3C)cc1,–,"inconclusive: 29.1 µM [cytotoxic, single point]"
CCOCCn1c(CN(Cc2ccccc2)Cc2ccccc2)nc2c1c(=O)[nH]c(=O)n2C,–,"inconclusive: 14.6 µM [cytotoxic, partial curve]"
O=C(NC1CC1)c1cccc(NC(=O)C2CCN(S(=O)(=O)c3ccccc3C(F)(F)F)CC2)c1,–,"inconclusive: 5.17 µM [cytotoxic, partial curve, poor fit]"
COc1ccc(-n2nc(C(=O)Nc3ccc(OC)c(OC)c3)c3c4ccccc4n(C)c3c2=O)cc1,–,"inconclusive: 23.1 µM [cytotoxic, single point]"
CN(C)c1cc[n+](CC(=O)Nc2c(Cl)cc(Cl)cc2Cl)cc1,–,active: 8.2 µM
CCc1ccc(C(=O)Nc2nc3ccccc3[nH]2)cc1,–,"inconclusive: 11.6 µM [cytotoxic, partial curve, poor fit]"
O=C(Nc1ccc(-n2cccn2)cc1)C1CCCCN1Cc1cccc2c1OCO2 (stereo not drawn),–,active: 4.11 µM
COc1cccc(-c2cc(NC=O)c3ncc(-c4cc(OC)c(OC)c(OC)c4)n3c2)c1,–,active: 1.03 µM
CC(C)=C1C2CCC1C(C(=O)Nc1sc(C)c(-c3ccc(C(C)C)cc3)c1C(N)=O)C2C(=O)O (stereo not drawn),–,"inconclusive: 29.1 µM [cytotoxic, single point]"
N#CC1=C(N)SC(N)=C(C#N)C1C1CC=CCC1 (stereo not drawn),inactive: -8.07%,–
COc1ccc(CC(=O)NNC(=O)COc2ccc3ccccc3c2)cc1,inactive: 5.94%,–
CCCN(CCC)C1=CC(=[N+]2CCCC2)CC(C)(C)C1,–,active: 2.59 µM
COc1cc([N+](=O)[O-])ccc1NC(=O)NCC1CCN(Cc2ccc(Cl)cc2)CC1,–,"inconclusive: 29.1 µM [cytotoxic, single point]"
O=C(O)c1cc2ccccc2c(N=Nc2cccnc2)c1O,–,"inconclusive: 23.1 µM [cytotoxic, partial curve, poor fit]"
COc1ccc(S(=O)(=O)N2CCCCC2)cc1NC(=O)c1ccc(CS(C)(=O)=O)cc1,–,"inconclusive: 29.1 µM [cytotoxic, single point]"
COc1ccc(C[C@@H]2OC3(C=CC(=O)C=C3)O[C@H]2Cc2ccc(OC)cc2)cc1,–,active: 2.31 µM
COc1c(Cl)cc(Br)c(OC)c1C(=O)NC(=O)Nc1nc(C)cc(C)n1,–,"inconclusive: 8.2 µM [cytotoxic, single point]"
c1ccc(-n2cnc3cc(NCc4cccs4)ccc32)cc1,–,"inconclusive: 18.4 µM [cytotoxic, single point]"
COc1ncccc1-c1nnn(-c2ccccc2)n1,inactive: 0%,–
Cc1ccccc1OCCC(=O)N1CCN(S(=O)(=O)c2ccc(Br)cc2)CC1,–,"inconclusive: 29.1 µM [cytotoxic, single point]"
CC(=O)c1cccc(OC(=O)c2cc(S(=O)(=O)N3CCOCC3)ccc2N2CCCC2)c1,–,"inconclusive: 5.8 µM [cytotoxic, full curve, poor fit]"

# Five records drawn at random from the list so far, as already listed:
SMILES,"activity change, negative = cytotoxic",Potency
COc1cccc(-c2cc(NC=O)c3ncc(-c4cc(OC)c(OC)c(OC)c4)n3c2)c1,–,active: 1.03 µM
CCOCCn1c(CN(Cc2ccccc2)Cc2ccccc2)nc2c1c(=O)[nH]c(=O)n2C,–,"inconclusive: 14.6 µM [cytotoxic, partial curve]"
O=C(CSc1nnc(-c2ccccc2)c(-c2ccccc2)n1)N1CCc2ccccc21,–,"inconclusive: 14.6 µM [cytotoxic, partial curve, poor fit]"
N#CC1=C(N)SC(N)=C(C#N)C1C1CC=CCC1 (stereo not drawn),inactive: -8.07%,–
COc1c(Cl)cc(Br)c(OC)c1C(=O)NC(=O)Nc1nc(C)cc(C)n1,–,"inconclusive: 8.2 µM [cytotoxic, single point]"

# Going on with the list:

SMILES,"activity change, negative = cytotoxic",Potency
CC(C)(Cc1ccc(O)cc1)NC(=O)CC(=O)N/N=C/c1ccc(Cl)cc1,–,"inconclusive: 29.1 µM [cytotoxic, single point]"
Cc1nn(CC(=O)NCCCN2CCC(Cc3ccccc3)CC2)c(=O)c2cc(-c3ccccc3)nn12,inconclusive: -0.523%,–
COc1ccc(-c2cc(C)no2)cc1S(=O)(=O)NCC1CCN(Cc2cc(C)ccc2C)CC1,–,"inconclusive: 23.1 µM [cytotoxic, single point]"
COc1ccccc1C1CCN(C(=S)Nc2ccc(Br)cc2)CC1,–,"inconclusive: 29.1 µM [rising, single point]"
COc1ccc(-c2cc3c(=O)n(CC(=O)NCCCN4CCC(N5CCCCC5)CC4)nc(C)n3n2)cc1,–,"inconclusive: 18.4 µM [cytotoxic, single point]"
N/C(=N\OS(=O)(=O)c1ccc(Cl)cc1)c1ccccn1,–,"inconclusive: 20.6 µM [cytotoxic, single point]"
CC1CCCN(CC(=O)Nc2cc(Cl)ccc2Oc2ccccc2)C1 (stereo not drawn),–,"inconclusive: 0.184 µM [cytotoxic, full curve]"
CCNC(=O)c1cccc(S(=O)(=O)N2CCCCCC2)c1,inactive: 2.1%,–
CCc1n[nH]c2c1/C(=N\O)CC(c1ccccc1)C2 (stereo not drawn),–,"inconclusive: 18.4 µM [cytotoxic, partial curve]"
CC1(c2ccc3ccccc3c2)NC(=O)N(CC(=O)N2CCN(Cc3ccccc3)CC2)C1=O (stereo not drawn),–,"inconclusive: 1.16 µM [cytotoxic, full curve, poor fit]"
Cc1ccc(NC(=O)COC(=O)CN2C(=O)NC(C)(C)C2=O)cc1S(=O)(=O)N1CCOCC1,inactive: -1.94%,–
COc1ccccc1NC(=O)c1sc2nc(-c3cc4cc(Cl)ccc4oc3=O)[nH]c(=O)c2c1C,inactive: -8.95%,–
COc1ccc2cc3cc(C(=O)NCc4cccs4)oc3nc2c1,–,active: 4.61 µM
O=C(NCCN1CCOCC1)c1ccc(Cl)cc1,inactive: -0.0131%,–
Cc1nc(-c2cccc(NC(=O)c3cccc(S(=O)(=O)N4CCCC4)c3)c2)cs1,–,"inconclusive: 29.1 µM [cytotoxic, single point]"
C=CCNc1ncnc2c1[nH]c1ccccc12,–,"inconclusive: 18.4 µM [cytotoxic, partial curve, poor fit]"
Cc1ccc(/C=C(\C#N)C(=O)Nc2cccc3ncccc23)o1,–,"inconclusive: 29.1 µM [rising, single point]"
Cc1ccc(S(=O)(=O)N2CCCCC2CCNC(=O)C(=O)NCc2ccccc2)cc1 (stereo not drawn),–,active: 3.66 µM
Cc1cc(Cl)ccc1OCCCC(=O)NO,–,"inconclusive: 29.1 µM [cytotoxic, single point]"
COc1ccc(Nc2nc(N3CCCC3)c3ccccc3n2)cc1,–,"inconclusive: 29.1 µM [cytotoxic, single point]"
COC(=O)CC1SCCNC1=O (stereo not drawn),–,"inconclusive: 2.82 µM [cytotoxic, partial curve, poor fit]"

# — PubChem BioAssay AID1347075 (National Center for Advancing Translational Sciences (NCATS), 2019)
